Test results: publication PMC5648194
These are yes or no findings as the source states them, for the method shown. Binding seen in cells or lysates may run through a third protein. Some entries that bind do so weakly or less than the wild type. Where a sequence is shown, tags or fusion partners need not be part of it.

The chains behind the UniProt entries cited, without tags or fusion partners.
UniProt P14713: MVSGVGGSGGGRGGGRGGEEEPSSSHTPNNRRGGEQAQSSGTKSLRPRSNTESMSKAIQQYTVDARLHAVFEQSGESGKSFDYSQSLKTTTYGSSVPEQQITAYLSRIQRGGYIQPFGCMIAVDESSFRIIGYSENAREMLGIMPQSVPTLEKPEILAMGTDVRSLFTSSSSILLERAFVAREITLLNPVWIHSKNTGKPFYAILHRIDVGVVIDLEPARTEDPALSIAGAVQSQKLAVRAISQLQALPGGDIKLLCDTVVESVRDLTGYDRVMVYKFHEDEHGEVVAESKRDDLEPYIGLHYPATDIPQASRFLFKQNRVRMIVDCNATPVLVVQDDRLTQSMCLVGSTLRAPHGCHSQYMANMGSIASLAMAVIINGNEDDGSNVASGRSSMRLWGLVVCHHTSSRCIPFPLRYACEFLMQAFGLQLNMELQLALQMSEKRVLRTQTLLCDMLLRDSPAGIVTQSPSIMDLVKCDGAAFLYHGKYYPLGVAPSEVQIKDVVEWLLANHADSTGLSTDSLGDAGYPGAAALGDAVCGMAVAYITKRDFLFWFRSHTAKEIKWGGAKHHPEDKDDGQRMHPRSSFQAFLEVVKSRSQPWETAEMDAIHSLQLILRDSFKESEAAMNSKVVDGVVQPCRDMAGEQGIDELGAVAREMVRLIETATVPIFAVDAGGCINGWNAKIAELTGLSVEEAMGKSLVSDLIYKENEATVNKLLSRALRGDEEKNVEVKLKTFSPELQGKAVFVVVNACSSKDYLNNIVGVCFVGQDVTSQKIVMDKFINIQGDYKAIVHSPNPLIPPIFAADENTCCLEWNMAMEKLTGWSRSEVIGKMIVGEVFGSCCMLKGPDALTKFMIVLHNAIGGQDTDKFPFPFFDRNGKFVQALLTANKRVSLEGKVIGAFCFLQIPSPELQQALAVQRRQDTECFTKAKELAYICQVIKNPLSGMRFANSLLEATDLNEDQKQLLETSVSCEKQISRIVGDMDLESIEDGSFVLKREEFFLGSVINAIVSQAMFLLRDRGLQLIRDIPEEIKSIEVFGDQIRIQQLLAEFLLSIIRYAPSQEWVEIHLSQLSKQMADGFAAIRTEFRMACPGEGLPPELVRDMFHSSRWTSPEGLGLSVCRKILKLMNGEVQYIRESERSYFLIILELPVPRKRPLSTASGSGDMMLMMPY

Tests used:
[1] = target: T1, phyA-myc1 (Arabidopsis phytochrome A with a single c-Myc epitope, expressed from the PHYA promoter) (Arabidopsis (ecotype Col cDNA)) (UniProt P14712); assay: co-IP; anti-myc 9E10 and protein A-agarose on seedling extracts in IP buffer (50 mM Tris pH 8.0, 150 mM NaCl, 0.1% IGEPAL CA-630), on ice; blots probed with anti-phyA, -phyB, -phyC, -phyD and -phyE monoclonals; seedlings dark-grown (Fig 5B) or grown 4 days in the dark followed by 24 h continuous FR (S4 Fig)
T1 sequence: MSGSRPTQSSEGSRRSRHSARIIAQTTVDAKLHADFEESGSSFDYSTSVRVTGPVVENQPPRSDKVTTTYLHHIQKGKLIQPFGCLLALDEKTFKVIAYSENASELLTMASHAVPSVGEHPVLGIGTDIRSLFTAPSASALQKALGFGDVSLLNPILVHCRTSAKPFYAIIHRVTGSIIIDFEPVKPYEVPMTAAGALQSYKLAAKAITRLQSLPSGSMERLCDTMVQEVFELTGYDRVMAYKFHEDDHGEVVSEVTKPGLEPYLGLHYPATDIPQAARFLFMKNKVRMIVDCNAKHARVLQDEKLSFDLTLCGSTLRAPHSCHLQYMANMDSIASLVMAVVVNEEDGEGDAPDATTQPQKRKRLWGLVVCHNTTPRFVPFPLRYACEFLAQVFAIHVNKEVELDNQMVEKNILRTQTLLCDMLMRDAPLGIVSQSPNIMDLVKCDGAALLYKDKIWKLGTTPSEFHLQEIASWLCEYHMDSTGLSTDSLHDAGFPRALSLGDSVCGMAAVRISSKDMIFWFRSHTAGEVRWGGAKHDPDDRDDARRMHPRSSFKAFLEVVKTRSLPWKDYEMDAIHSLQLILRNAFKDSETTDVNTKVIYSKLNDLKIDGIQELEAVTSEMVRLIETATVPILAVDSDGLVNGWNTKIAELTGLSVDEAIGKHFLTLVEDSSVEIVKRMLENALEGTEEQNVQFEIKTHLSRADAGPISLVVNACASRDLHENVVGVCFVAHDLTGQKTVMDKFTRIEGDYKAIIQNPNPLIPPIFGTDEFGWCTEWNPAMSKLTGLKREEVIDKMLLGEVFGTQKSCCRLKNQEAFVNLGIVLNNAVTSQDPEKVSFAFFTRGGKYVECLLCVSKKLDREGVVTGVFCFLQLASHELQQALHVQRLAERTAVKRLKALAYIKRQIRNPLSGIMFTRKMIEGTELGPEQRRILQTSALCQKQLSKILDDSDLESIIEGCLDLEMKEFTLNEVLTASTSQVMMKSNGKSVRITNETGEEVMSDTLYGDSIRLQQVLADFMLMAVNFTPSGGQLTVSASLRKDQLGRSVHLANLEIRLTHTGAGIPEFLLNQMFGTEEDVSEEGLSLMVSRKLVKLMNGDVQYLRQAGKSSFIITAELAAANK

[2] = target: T2, phyA-myc6 (Arabidopsis phytochrome A with six consecutive c-Myc epitopes, expressed from the PHYA promoter) (Arabidopsis (ecotype Col cDNA)) (UniProt P14712); assay: as above
T2 sequence: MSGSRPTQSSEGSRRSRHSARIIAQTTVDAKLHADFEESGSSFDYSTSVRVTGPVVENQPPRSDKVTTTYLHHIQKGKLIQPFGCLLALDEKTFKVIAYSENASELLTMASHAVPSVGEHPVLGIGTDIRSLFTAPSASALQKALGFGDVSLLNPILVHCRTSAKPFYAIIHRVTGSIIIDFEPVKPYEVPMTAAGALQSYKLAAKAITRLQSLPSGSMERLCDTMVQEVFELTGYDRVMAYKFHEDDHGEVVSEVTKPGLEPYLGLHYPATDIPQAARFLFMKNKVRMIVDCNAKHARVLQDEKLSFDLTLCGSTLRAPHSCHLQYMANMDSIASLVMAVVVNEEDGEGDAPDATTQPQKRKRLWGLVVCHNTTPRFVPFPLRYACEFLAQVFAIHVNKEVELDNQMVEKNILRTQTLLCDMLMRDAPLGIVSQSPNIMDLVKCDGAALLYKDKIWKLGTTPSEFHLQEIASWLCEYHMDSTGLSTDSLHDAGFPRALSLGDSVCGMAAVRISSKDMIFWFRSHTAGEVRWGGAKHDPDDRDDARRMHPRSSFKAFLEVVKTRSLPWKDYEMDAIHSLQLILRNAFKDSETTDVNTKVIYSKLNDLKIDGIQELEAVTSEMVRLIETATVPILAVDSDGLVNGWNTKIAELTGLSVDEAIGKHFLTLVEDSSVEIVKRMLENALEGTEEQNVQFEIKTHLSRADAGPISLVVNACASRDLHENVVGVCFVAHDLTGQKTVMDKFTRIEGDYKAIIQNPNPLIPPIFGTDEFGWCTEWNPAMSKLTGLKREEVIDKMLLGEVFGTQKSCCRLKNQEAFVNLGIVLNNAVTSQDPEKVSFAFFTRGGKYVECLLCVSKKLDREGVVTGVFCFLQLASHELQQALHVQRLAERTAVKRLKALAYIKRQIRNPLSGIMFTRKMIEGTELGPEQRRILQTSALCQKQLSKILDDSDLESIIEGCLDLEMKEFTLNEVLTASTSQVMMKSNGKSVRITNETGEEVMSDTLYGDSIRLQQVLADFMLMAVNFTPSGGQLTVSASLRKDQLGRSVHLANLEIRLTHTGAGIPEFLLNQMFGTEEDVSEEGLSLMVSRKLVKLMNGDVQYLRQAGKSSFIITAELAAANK

endogenous phytochrome B (phyB) (from UniProt P14713 1-1172) (receptor)
binding [1]: no binding
binding [2]: no binding

B1: endogenous phytochrome A (phyA) (receptor, UniProt P14712 1-1122)
chain: MSGSRPTQSSEGSRRSRHSARIIAQTTVDAKLHADFEESGSSFDYSTSVRVTGPVVENQPPRSDKVTTTYLHHIQKGKLIQPFGCLLALDEKTFKVIAYSENASELLTMASHAVPSVGEHPVLGIGTDIRSLFTAPSASALQKALGFGDVSLLNPILVHCRTSAKPFYAIIHRVTGSIIIDFEPVKPYEVPMTAAGALQSYKLAAKAITRLQSLPSGSMERLCDTMVQEVFELTGYDRVMAYKFHEDDHGEVVSEVTKPGLEPYLGLHYPATDIPQAARFLFMKNKVRMIVDCNAKHARVLQDEKLSFDLTLCGSTLRAPHSCHLQYMANMDSIASLVMAVVVNEEDGEGDAPDATTQPQKRKRLWGLVVCHNTTPRFVPFPLRYACEFLAQVFAIHVNKEVELDNQMVEKNILRTQTLLCDMLMRDAPLGIVSQSPNIMDLVKCDGAALLYKDKIWKLGTTPSEFHLQEIASWLCEYHMDSTGLSTDSLHDAGFPRALSLGDSVCGMAAVRISSKDMIFWFRSHTAGEVRWGGAKHDPDDRDDARRMHPRSSFKAFLEVVKTRSLPWKDYEMDAIHSLQLILRNAFKDSETTDVNTKVIYSKLNDLKIDGIQELEAVTSEMVRLIETATVPILAVDSDGLVNGWNTKIAELTGLSVDEAIGKHFLTLVEDSSVEIVKRMLENALEGTEEQNVQFEIKTHLSRADAGPISLVVNACASRDLHENVVGVCFVAHDLTGQKTVMDKFTRIEGDYKAIIQNPNPLIPPIFGTDEFGWCTEWNPAMSKLTGLKREEVIDKMLLGEVFGTQKSCCRLKNQEAFVNLGIVLNNAVTSQDPEKVSFAFFTRGGKYVECLLCVSKKLDREGVVTGVFCFLQLASHELQQALHVQRLAERTAVKRLKALAYIKRQIRNPLSGIMFTRKMIEGTELGPEQRRILQTSALCQKQLSKILDDSDLESIIEGCLDLEMKEFTLNEVLTASTSQVMMKSNGKSVRITNETGEEVMSDTLYGDSIRLQQVLADFMLMAVNFTPSGGQLTVSASLRKDQLGRSVHLANLEIRLTHTGAGIPEFLLNQMFGTEEDVSEEGLSLMVSRKLVKLMNGDVQYLRQAGKSSFIITAELAAANK
binding [2]: binds

B2: endogenous phytochrome C (phyC) (receptor, UniProt P14714 1-1111)
chain: MSSNTSRSCSTRSRQNSRVSSQVLVDAKLHGNFEESERLFDYSASINLNMPSSSCEIPSSAVSTYLQKIQRGMLIQPFGCLIVVDEKNLKVIAFSENTQEMLGLIPHTVPSMEQREALTIGTDVKSLFLSPGCSALEKAVDFGEISILNPITLHCRSSSKPFYAILHRIEEGLVIDLEPVSPDEVPVTAAGALRSYKLAAKSISRLQALPSGNMLLLCDALVKEVSELTGYDRVMVYKFHEDGHGEVIAECCREDMEPYLGLHYSATDIPQASRFLFMRNKVRMICDCSAVPVKVVQDKSLSQPISLSGSTLRAPHGCHAQYMSNMGSVASLVMSVTINGSDSDEMNRDLQTGRHLWGLVVCHHASPRFVPFPLRYACEFLTQVFGVQINKEAESAVLLKEKRILQTQSVLCDMLFRNAPIGIVTQSPNIMDLVKCDGAALYYRDNLWSLGVTPTETQIRDLIDWVLKSHGGNTGFTTESLMESGYPDASVLGESICGMAAVYISEKDFLFWFRSSTAKQIKWGGARHDPNDRDGKRMHPRSSFKAFMEIVRWKSVPWDDMEMDAINSLQLIIKGSLQEEHSKTVVDVPLVDNRVQKVDELCVIVNEMVRLIDTAAVPIFAVDASGVINGWNSKAAEVTGLAVEQAIGKPVSDLVEDDSVETVKNMLALALEGSEERGAEIRIRAFGPKRKSSPVELVVNTCCSRDMTNNVLGVCFIGQDVTGQKTLTENYSRVKGDYARIMWSPSTLIPPIFITNENGVCSEWNNAMQKLSGIKREEVVNKILLGEVFTTDDYGCCLKDHDTLTKLRIGFNAVISGQKNIEKLLFGFYHRDGSFIEALLSANKRTDIEGKVTGVLCFLQVPSPELQYALQVQQISEHAIACALNKLAYLRHEVKDPEKAISFLQDLLHSSGLSEDQKRLLRTSVLCREQLAKVISDSDIEGIEEGYVELDCSEFGLQESLEAVVKQVMELSIERKVQISCDYPQEVSSMRLYGDNLRLQQILSETLLSSIRFTPALRGLCVSFKVIARIEAIGKRMKRVELEFRIIHPAPGLPEDLVREMFQPLRKGTSREGLGLHITQKLVKLMERGTLRYLRESEMSAFVILTEFPLI
binding [1]: no binding
binding [2]: no binding

B3: endogenous phytochrome D (phyD) (receptor, UniProt P42497 1-1164)
chain: MVSGGGSKTSGGEAASSGHRRSRHTSAAEQAQSSANKALRSQNQQPQNHGGGTESTNKAIQQYTVDARLHAVFEQSGESGKSFDYSQSLKTAPYDSSVPEQQITAYLSRIQRGGYTQPFGCLIAVEESTFTIIGYSENAREMLGLMSQSVPSIEDKSEVLTIGTDLRSLFKSSSYLLLERAFVAREITLLNPIWIHSNNTGKPFYAILHRVDVGILIDLEPARTEDPALSIAGAVQSQKLAVRAISHLQSLPSGDIKLLCDTVVESVRDLTGYDRVMVYKFHEDEHGEVVAESKRNDLEPYIGLHYPATDIPQASRFLFKQNRVRMIVDCYASPVRVVQDDRLTQFICLVGSTLRAPHGCHAQYMTNMGSIASLAMAVIINGNEEDGNGVNTGGRNSMRLWGLVVCHHTSARCIPFPLRYACEFLMQAFGLQLNMELQLALQVSEKRVLRMQTLLCDMLLRDSPAGIVTQRPSIMDLVKCNGAAFLYQGKYYPLGVTPTDSQINDIVEWLVANHSDSTGLSTDSLGDAGYPRAAALGDAVCGMAVACITKRDFLFWFRSHTEKEIKWGGAKHHPEDKDDGQRMNPRSSFQTFLEVVKSRCQPWETAEMDAIHSLQLILRDSFKESEAMDSKAAAAGAVQPHGDDMVQQGMQEIGAVAREMVRLIETATVPIFAVDIDGCINGWNAKIAELTGLSVEDAMGKSLVRELIYKEYKETVDRLLSCALKGDEGKNVEVKLKTFGSELQGKAMFVVVNACSSKDYLNNIVGVCFVGQDVTGHKIVMDKFINIQGDYKAIIHSPNPLIPPIFAADENTCCLEWNTAMEKLTGWPRSEVIGKLLVREVFGSYCRLKGPDALTKFMIVLHNAIGGQDTDKFPFPFFDRKGEFIQALLTLNKRVSIDGKIIGAFCFLQIPSPELQQALEVQRRQESEYFSRRKELAYIFQVIKNPLSGLRFTNSLLEDMDLNEDQKQLLETSVSCEKQISKIVGDMDVKSIDDGSFLLERTEFFIGNVTNAVVSQVMLVVRERNLQLIRNIPTEVKSMAVYGDQIRLQQVLAEFLLSIVRYAPMEGSVELHLCPTLNQMADGFSAVRLEFRMACAGEGVPPEKVQDMFHSSRWTSPEGLGLSVCRKILKLMNGGVQYIREFERSYFLIVIELPVPLMMMMPSS
binding [1]: no binding
binding [2]: no binding

B4: endogenous phytochrome E (phyE) (receptor, UniProt P42498 1-1112)
chain: MGFESSSSAASNMKPQPQKSNTAQYSVDAALFADFAQSIYTGKSFNYSKSVISPPNHVPDEHITAYLSNIQRGGLVQPFGCLIAVEEPSFRILGLSDNSSDFLGLLSLPSTSHSGEFDKVKGLIGIDARTLFTPSSGASLSKAASFTEISLLNPVLVHSRTTQKPFYAILHRIDAGIVMDLEPAKSGDPALTLAGAVQSQKLAVRAISRLQSLPGGDIGALCDTVVEDVQRLTGYDRVMVYQFHEDDHGEVVSEIRRSDLEPYLGLHYPATDIPQAARFLFKQNRVRMICDCNATPVKVVQSEELKRPLCLVNSTLRAPHGCHTQYMANMGSVASLALAIVVKGKDSSKLWGLVVGHHCSPRYVPFPLRYACEFLMQAFGLQLQMELQLASQLAEKKAMRTQTLLCDMLLRDTVSAIVTQSPGIMDLVKCDGAALYYKGKCWLVGVTPNESQVKDLVNWLVENHGDDSTGLTTDSLVDAGYPGAISLGDAVCGVAAAGFSSKDYLLWFRSNTASAIKWGGAKHHPKDKDDAGRMHPRSSFTAFLEVAKSRSLPWEISEIDAIHSLRLIMRESFTSSRPVLSGNGVARDANELTSFVCEMVRVIETATAPIFGVDSSGCINGWNKKTAEMTGLLASEAMGKSLADEIVQEESRAALESLLCKALQGEEEKSVMLKLRKFGQNNHPDYSSDVCVLVNSCTSRDYTENIIGVCFVGQDITSEKAITDRFIRLQGDYKTIVQSLNPLIPPIFASDENACCSEWNAAMEKLTGWSKHEVIGKMLPGEVFGVFCKVKCQDSLTKFLISLYQGIAGDNVPESSLVEFFNKEGKYIEASLTANKSTNIEGKVIRCFFFLQIINKESGLSCPELKESAQSLNELTYVRQEIKNPLNGIRFAHKLLESSEISASQRQFLETSDACEKQITTIIESTDLKSIEEGKLQLETEEFRLENILDTIISQVMIILRERNSQLRVEVAEEIKTLPLNGDRVKLQLILADLLRNIVNHAPFPNSWVGISISPGQELSRDNGRYIHLQFRMIHPGKGLPSEMLSDMFETRDGWVTPDGLGLKLSRKLLEQMNGRVSYVREDERCFFQVDLQVKTMLGVESRGTEGSSSIK
binding [1]: no binding
binding [2]: no binding
